From US4265912A, “Glaucine lactate salts” (priority 1979, dated 1981)

Experiment: palatability (taste) of 0.2 percent salt solutions in distilled water
Conditions: 0.2 percent (weight by volume) solution in distilled water, few drops on tongue

COc1cc2c(cc1OC)-c1c(OC)c(OC)cc3c1C(C2)N(C)CC3 (racemic) [d,l-glaucine hydrobromide]
palatability / taste (hydrobromide): objectionable with a bitter, sharp and metallic initial taste which increased with time

COc1cc2c(cc1OC)-c1c(OC)c(OC)cc3c1C(C2)N(C)CC3 (racemic) [d,l-glaucine lactate]
palatability / taste: lack the sharp, metallic flavor and to be unobjectionable

COc1cc2c(cc1OC)-c1c(OC)c(OC)cc3c1C(C2)N(C)CC3 (racemic) [succinate]
palatability / taste: more objectionable than the hydrobromide

Counter-ions that a name gives are not always drawn.
